In publication PMC6715699:
These are yes or no findings as the source states them, for the method shown. Binding seen in cells or lysates may run through a third protein. Some results given as binding are weak or reduced against the parent protein; the word gives no strength. Each block holds one binder with its values, some of them ahead of it.

Protein sequences, listed by entry. Tags and fused reporters are not part of them. Lines headed by an entry give the natural chain unless they say otherwise; changes in a name come on top. Chains listed by the source or under a name are the forms on record and can include a tag or linker. Residues count along the entry.
UniProt Q06330: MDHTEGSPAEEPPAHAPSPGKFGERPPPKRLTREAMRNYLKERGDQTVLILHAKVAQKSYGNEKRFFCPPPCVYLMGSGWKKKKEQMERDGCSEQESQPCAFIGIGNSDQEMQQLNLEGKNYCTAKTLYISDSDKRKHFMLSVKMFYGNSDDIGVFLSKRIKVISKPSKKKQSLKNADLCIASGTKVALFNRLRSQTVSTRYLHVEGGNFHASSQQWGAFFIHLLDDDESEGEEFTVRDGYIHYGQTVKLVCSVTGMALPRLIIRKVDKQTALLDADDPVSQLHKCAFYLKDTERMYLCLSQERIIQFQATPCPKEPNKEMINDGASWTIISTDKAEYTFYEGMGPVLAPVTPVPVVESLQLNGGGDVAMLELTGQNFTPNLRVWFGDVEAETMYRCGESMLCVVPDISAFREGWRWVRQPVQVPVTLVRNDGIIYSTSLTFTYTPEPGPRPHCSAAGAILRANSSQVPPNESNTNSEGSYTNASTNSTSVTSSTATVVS
FLAG-tagged CSL BTD (166–334): residues 166-334 of Q06330

Tests used:
[1] = molecular target: FLAG-tagged CSL BTD (166–334) (human) (UniProt Q06330); assay: co-IP; HEK293T cells expressing FLAG-tagged CSL FL, BTD or point mutants plus/minus FL UPF1 or FL Ku70; anti-FLAG M2 magnetic beads, immunoblotting
[2] = molecular target: FLAG-tagged full length (FL) CSL (human) (UniProt Q06330); assay: as above
[3] = molecular target: CSL (RBP-Jκ), endogenous (human (endogenous in HDFs)) (UniProt Q06330); assay: proximity ligation; Duolink PLA kit on fixed HDFs; HDFs with silenced CSL as negative control
[4] = molecular target: CSL (RBP-Jκ), endogenous (human (endogenous in HDFs)) (UniProt Q06330); assay: co-IP; HDF lysates, anti-CSL antibodies or non-immune IgG, immunoblotting; endogenous proteins
[5] = molecular target: FLAG-tagged CSL Q307R (human) (UniProt Q06330); assay: co-IP; HEK293T cells expressing FLAG-tagged CSL FL, BTD or point mutants plus/minus FL UPF1 or FL Ku70; anti-FLAG M2 magnetic beads, immunoblotting
[6] = molecular target: FLAG-tagged CSL A258R (human) (UniProt Q06330); assay: as above
[7] = molecular target: FLAG-tagged CSL R192H (human) (UniProt Q06330); assay: as above
[8] = molecular target: FLAG-tagged CSL F235R (human) (UniProt Q06330); assay: as above

binding [1]: binds
binding [2]: binds
B1: full length (FL) UPF1, expressed in HEK293T (protein, UniProt Q92900 1-1129)
chain: MSVEAYGPSSQTLTFLDTEEAELLGADTQGSEFEFTDFTLPSQTQTPPGGPGGPGGGGAGGPGGAGAGAAAGQLDAQVGPEGILQNGAVDDSVAKTSQLLAELNFEEDEEDTYYTKDLPIHACSYCGIHDPACVVYCNTSKKWFCNGRGNTSGSHIVNHLVRAKCKEVTLHKDGPLGETVLECYNCGCRNVFLLGFIPAKADSVVVLLCRQPCASQSSLKDINWDSSQWQPLIQDRCFLSWLVKIPSEQEQLRARQITAQQINKLEELWKENPSATLEDLEKPGVDEEPQHVLLRYEDAYQYQNIFGPLVKLEADYDKKLKESQTQDNITVRWDLGLNKKRIAYFTLPKTDSGNEDLVIIWLRDMRLMQGDEICLRYKGDLAPLWKGIGHVIKVPDNYGDEIAIELRSSVGAPVEVTHNFQVDFVWKSTSFDRMQSALKTFAVDETSVSGYIYHKLLGHEVEDVIIKCQLPKRFTAQGLPDLNHSQVYAVKTVLQRPLSLIQGPPGTGKTVTSATIVYHLARQGNGPVLVCAPSNIAVDQLTEKIHQTGLKVVRLCAKSREAIDSPVSFLALHNQIRNMDSMPELQKLQQLKDETGELSSADEKRYRALKRTAERELLMNADVICCTCVGAGDPRLAKMQFRSILIDESTQATEPECMVPVVLGAKQLILVGDHCQLGPVVMCKKAAKAGLSQSLFERLVVLGIRPIRLQVQYRMHPALSAFPSNIFYEGSLQNGVTAADRVKKGFDFQWPQPDKPMFFYVTQGQEEIASSGTSYLNRTEAANVEKITTKLLKAGAKPDQIGIITPYEGQRSYLVQYMQFSGSLHTKLYQEVEIASVDAFQGREKDFIILSCVRANEHQGIGFLNDPRRLNVALTRARYGVIIVGNPKALSKQPLWNHLLNYYKEQKVLVEGPLNNLRESLMQFSKPRKLVNTINPGARFMTTAMYDAREAIIPGSVYDRSSQGRPSSMYFQTHDQIGMISAGPSHVAAMNIPIPFNLVMPPMPPPGYFGQANGPAAGRGTPKGKTGRGGRQKNRFGLPGPSQTNLPNSQASQDVASQPFSQGALTQGYISMSQPSQMSQPGLSQPELSQDSYLGDEFKSQIDVALSQDSTYQGERAYQHGGVTGLSQY

binding [3]: binds
binding [4]: binds
B2: UPF1 (Up-Frameshift Suppressor 1 Homolog), endogenous (protein, UniProt Q92900 1-1129)
chain: B1 chain

binding [5]: binds
binding [6]: binds
binding [7]: binds
binding [8]: binds
binding [2]: binds
B3: UPF1 in HEK293T cells (Fig. 8d) (protein, UniProt Q92900 1-1129)
chain: B1 chain
